Values quoted from earlier work as cited in patent US20210308204A1, “FORMULATIONS CONTAINING LIPOPHILIC EXTRACTS OF SPICY EDIBLE PLANTS USEFUL IN CONTROLLING PAIN AND INFLAMMATION” (priority 2018, published 2021).
At least one compound was matched to its structure with a doubt left.

Tested on: interleukin (IL) 1β induced inflammation

## CC1=C(O)C(=O)C=C2C1=CC=C1[C@@]2(C)CC[C@@]2(C)[C@@H]3C[C@](C)(C(=O)O)CC[C@]3(C)CC[C@]12C [celastrol]
  expression of IL 6, IL 8, cyclooxygenase (COX) 2 and ICAM 1: significantly attenuated
IL 1β induced
  IL 1β induced increases in the expression of IL 6, IL 8, ICAM 1 and COX 2: inhibited
Through inhibiting the activation of nuclear factor (NF)
  IL 1β-induced inflammatory responses: suppressed
